From patent publication US20100261781
For part of these data: Where cells or extracts were used, other partners may take part. For part of these data: The exact form of at least one protein or probe is not confirmed.

The chains behind the UniProt entries cited, without tags or fusion partners. Where a name states a change or a piece, a line headed by the entry shows the natural chain unless it says otherwise.
UniProt Q04609: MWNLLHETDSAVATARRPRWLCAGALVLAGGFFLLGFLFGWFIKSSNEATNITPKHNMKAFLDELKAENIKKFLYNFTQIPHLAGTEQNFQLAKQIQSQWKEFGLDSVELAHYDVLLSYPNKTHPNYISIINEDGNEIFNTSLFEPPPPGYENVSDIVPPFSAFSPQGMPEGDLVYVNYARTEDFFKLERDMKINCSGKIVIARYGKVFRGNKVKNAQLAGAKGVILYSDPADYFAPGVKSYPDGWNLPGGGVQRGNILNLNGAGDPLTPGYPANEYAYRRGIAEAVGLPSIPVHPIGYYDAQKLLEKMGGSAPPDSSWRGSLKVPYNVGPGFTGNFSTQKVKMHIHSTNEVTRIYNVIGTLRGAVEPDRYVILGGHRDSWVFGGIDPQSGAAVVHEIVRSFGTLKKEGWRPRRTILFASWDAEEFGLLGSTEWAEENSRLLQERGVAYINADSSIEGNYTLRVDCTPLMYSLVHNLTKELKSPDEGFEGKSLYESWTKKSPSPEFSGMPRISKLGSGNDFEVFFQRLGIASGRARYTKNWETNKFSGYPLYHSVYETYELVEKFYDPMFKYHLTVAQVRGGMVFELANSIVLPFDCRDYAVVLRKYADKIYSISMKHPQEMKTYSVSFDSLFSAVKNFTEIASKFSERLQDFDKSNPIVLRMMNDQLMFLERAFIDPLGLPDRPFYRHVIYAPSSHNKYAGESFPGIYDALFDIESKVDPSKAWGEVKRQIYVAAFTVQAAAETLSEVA

Assays:
[1] = molecular target: PSMA (prostate specific membrane antigen) extracellular domain (UniProt Q04609); assay: SELEX; settings: 9 of 10 clones of second SELEX; 37 C; purified recombinant protein; label: Rhodamine or Quasar 570; single-stranded DNA
[2] = molecular target: PSMA (prostate specific membrane antigen) on C4-2 and LNCaP cells (UniProt Q04609); assay: binding assay; settings: fluorescence microscopy, protein on the cell surface, single-stranded DNA
[3] = molecular target: PSMA (prostate specific membrane antigen) on C4-2 and LNCaP cells (UniProt Q04609); assay: flow cytometry; settings: protein on the cell surface, label: Quasar 670 (dA16 strand), Quasar 570 (dT16 strand), folded or branched DNA
[4] = molecular target: PSMA (prostate specific membrane antigen) on PSMA-transduced PC3 cells (UniProt Q04609); assay: binding assay; settings: confocal microscopy; surface binding at 4 C, internalized at 37 C; no binding to PSMA- PC3 cells; presence of alkyl linker not stated; protein on the cell surface; label: Quasar 670 (dA16 strand), Quasar 570 (dT16 strand); folded or branched DNA; variant of PSMA01

With “GCGTTTTCGCTTTTGCGTTTTGGGTCATCTGCTTACGATAGCAATCGT [PSMA01]” the selection result [1] was “selected” and the binding result ([2]; live C4-2 and LNCaP cells, 1 uM, PBS, 2 h RT, no binding to PSMA- PC3 cells, no significant internalization, label: Rhodamine or Quasar 570) was “binds”.

“GCGTTTTCGCTTTTGCGTTTTGGGTCATCTGCTTACGATAGCAATCGTAAAAAAAAAAAAAAAA / GCGTTTTCGCTTTTGCGTTTTGGGTCATCTGCTTACGATAGCAATCGTTTTTTTTTTTTTTTTT [PSMA01 dimeric aptamer complex with alkyl linkers]”: binds ([3]; one alkyl spacer between PSMA01 and each tail).

“GCGTTTTCGCTTTTGCGTTTTGGGTCATCTGCTTACGATAGCAATCGTTTTTTTTTTTTTTTTT [PSMA01-dT16 monomer]”: binds ([2]; live C4-2 cells, less surface binding than dimer, label: Quasar 570, variant of PSMA01).

“GCGTTTTCGCTTTTGCGTTTTGGGTCATCTGCTTACGATAGCAATCGTAAAAAAAAAAAAAAAA / GCGTTTTCGCTTTTGCGTTTTGGGTCATCTGCTTACGATAGCAATCGTTTTTTTTTTTTTTTTT [PSMA01 dimeric aptamer complex (dA16/dT16)]”: binds [4]; binds ([3]; C4-2 cells, greater binding and internalization than monomer, variant of PSMA01).
